# Laboratory results reported in patent US5824529.
# For at least one entry, the source does not settle the construct or the ends of the probe. For part of these data: Negatives hold for the conditions tested.
# Assays:
# [1] = test system: PshAI restriction endonuclease (native) (Plesiomonas shigelloides); assay: enzyme reaction in vitro; details: purified native protein, protein details: N-terminal sequence SEQ ID NO:16
# [2] = test system: PshAI methylase (pSX34PshAIM1 / pPshAIM19) (Plesiomonas shigelloides); assay: activity in cells; details: modifies PshAI sites in vivo, making the plasmid resistant to PshAI; protein in cells; protein details: expressed in E. coli; only the site is given
Sequence,"activity on this sequence ([1]; PshAI methylase-modified (m6A-gamma-type), plasmid fully protected against PshAI cleavage)",activity on this sequence [2],"activity on this sequence ([1]; plasmid digestion with PshAI, NEBuffer 2, 30 C in the library selection)"
GACGGCCGTC (double strand),not active,–,–
GACGGCCGTC (double strand) [PshAI linker site inserted in pUC19 (pUC19PshAI)],–,active,active
